The assay deals with Hsp90^E36A-GFP (C-terminally GFP-tagged E36A trap mutant of C. albicans Hsp90) (C. albicans) (UniProt P46598). In words: affinity purification with mass spectrometry; single-step GFP-trap resin purification of Hsp90^E36A-GFP from C. albicans lysate; cells in YPD at 30°C untreated, with 8 μg/mL fluconazole or with 100 nM caspofungin; SAINTexpress against Eno1-GFP control, BFDR 2%.

These are yes or no findings as the source states them, for the method shown. Binding seen in cells or lysates may run through a third protein. A yes stands for co-enrichment or nearness to the bait. Other partners may have been found.

B1: Kre30 (C. albicans), endogenous (protein, UniProt Q5A2T2 1-609)
chain: MSISASKAKREQKRLEREAKKAAVGKSTKKTKKQAEKDAAEDEVEGAEEQIAKMKLQTDEHGLSDRVTTGVLESLETSRDIKLSSVSLLFHGKVLIQDSTLELNYGRRYGLLGENGCGKSTLMKSIAAREFPIPEHIDIYLLNEPAEATEYSALEYVVREAEHEMKRLEDLVEELIVKEGPECPALEGLYEKIDEMDPSTFESRAAIILTGLGFNSVTIKKKTKDMSGGWRMRVALAKALFVKPTLLLLDDPTAHLDLAACVWLEEYLKRFDRILILVSHSQDFLNGVCTNMIDMRLKLLTTYGGNYDSYVKTRAELETNQMKQYNKQQEEIAHIKKFIASAGTYANLVRQAKSRQKILDKMEADGLIQPVVPDKVFTFRFPEVEKLPPPVLAFDDMSFSYSGKPEDNLYEHLDIGIDMDSRVALVGPNGVGKSTLLKLFQGKLQPQTGRVIQHTHIKLGVYSQHSADQLDLTKSPLEFVRDKFANISQDYQYWRGQLGRYGLSGEAQTAQMATLSEGQRSRVVFALLALEGPNLILLDEPTNGLDLGTIDSLADAINAFNGGVVVVSHDFRLLDKVAKDIFVIENKTATRWNGSILDYKKSLASKVVL
As for B1, the binding entry is on record as “binds”.

B2: Ulp1 (C. albicans), endogenous (enzyme, UniProt Q5AEB5 1-351)
chain: MASVIYDEHKGYCVTNEPINKVNENEGIINNGLQTLPWDLYLPEETDDLSSASDNTSTSTPKPLTKQEKREAKQLKKINASRRRKLKREQELDNKGESKFPDFKPYLAKQELKALFSSIVKSTCQNSKADAKILQYHSIALYKSDLEHILPGEWLNDNNISLIYELIIQIFIKHGRKFSNQIQLLFPSLIQLLMHFPDDVESLLPVDELKSSKLIFLPINFIDEMDVDLEDANNGDHWSLGVLSLLDNTLYVYDSMQIDDDEISEIQLKKLVQKLQSCNTIVHGKLKVRHLKCDQQQNFDDCGVYVIMITCYLINQLLHQDEMSLDISRVKFNPLDARLHIMKLISRLIKE
Take B2: the binding result is on record as “binds”.

B3: Pab1 (C. albicans), endogenous (protein, UniProt Q5AI15 1-629)
chain: MSAAETNQLQESMEKLNIGSTTEEQSAAAATTTADQSAEEQGESSGVAENSASLYVGELNPSVNEATLFEIFSPIGQVSSIRVCRDAVSKKSLGYAYVNYHKYEDGEKAIEELNYNPIEGRPCRIMWSQRDPSARRSGDGNIFIKNLHPAIDNKALHDTFSAFGKILSCKVATDEFGQSKCFGFVHYETAEAAEAAIENVNGMLLNDREVFVGKHISKKDRESKFEEMKANFTNIYVKNIDLNYSEESFEKLFSPFGKITSIYLEKDQDGKSKGFGFVNFEDHESAVKAVEELNDKEINGQKIYVGRAQKKRERLEELKKQYEAVRLEKLAKYQGVNLFVKNLDDTIDSEKLEEEFKPFGTITSAKVMVDEAGKSKGFGFVCFTTPEEATKAITEMNTRMINGKPLYVALAQRKDVRRSQLEQQIQARNQMRMQNAAAGGLPGQFIPPMFYGQQGFFPPNGRGNAPYPGPNPQMMMRGRGQPFPEQWPRPGPNGQPVPVYGIPPQFQQDFNGQNMRPQQQQQQQPRGGYYPNRNQTSKRDLAAIISSVPQDQQKRILGEELYPKIVATGKAQEPEAAGKITGMMLGLENQEILDLLDDDELFNNHFEDALTAFEEYKKSEAAGNAEEQA
On to B3, for which the binding entry was “binds”.

B4: Rvb1 (C. albicans), endogenous (protein, UniProt Q5A0W7 1-458)
chain: MVQITEVKENQSSRESRTAAHTHIKGLGLNEQGIAKPIEGGFVGQNEAREACGIIVDLIKSKKMSGKAVLIAGPPATGKTALALAISQELGPKVPFCPIVGSELYSAEVKKTSALMENFRRAIGLRIKETKEVYEGEVIELTPEEAENPLGGYGKTISHVIVGLKSAKGTKTLRLDPVIYESIQKERVTIGDVIYIEANTGAVKRVGRSDAYATEFDLEAEEYVPLPKGEVHKKKEIVQDVTLHDLDVANARPQGGQDVLSMMGQLLKPKKTEITDKLRTEVNKVVSKYIEQGVAELVPGVLFIDEVNMLDMEIFTYLNRALESSIAPIVVLASNRGLTTVRGSDDGVKAPHGCPPDLIDRLLIVRTLPYNQEEIKTIIGKRASLEGLTLTDDALEKLSKQGLTTSLRYAVQLLTPAGVLSTTAGRSEITVQDIEECEFLFLDSRRSTKVLQETKTFL
Turning to B4, the binding entry is “binds”.

B5: Rvb2 (C. albicans), endogenous (protein, UniProt Q5AGZ9 1-498)
chain: MATNTITTTKVTTTTTDVTGLSLIAAHSHISGLGLDDNLQPKENAQGMVGQLSARKAAGVILKMVEAGKIAGRAVLIAGPPSTGKTAIAMGLSQSLGNQVPFTALAASEVFSLELSKTEALTQAFRKSIGIKIKEETEIIEGEVVEIQIDRTITGGHKQGKLTIKTTDMETIYELGNKMIEGLTKEKVLAGDVISIDKASGKITKLGRSFTRARDYDAMGPETKFVQCPEGELQKRKEVVHTISLHEIDVINSRQQGFLALFSGDTGEIRPEVRDQINTKVAEWKEEGKAEIVPGVLFIDEVHMLDIECFSFINRALEDEFSPIVIMATNRGVSRIRGTDYKSPHGMPMDLLDRSITIHTTSYTADEIRTILSIRATEEEVELSGDALALLTKIGQETSLRYAANLISVSQQIALKKKNNTVDLQDIKRAYMLFLDSDRSVQYLEENADQYIDDYGRVTIGQESTDGSTQPQAKQQEVAQPEATQPQSQPEDDKMETD
Turning to B5, the binding entry is given as “binds”.
